Measured values: patent US20200123233A1
Results are given in words; binding and its absence hold for the method and conditions named. Some entries that bind do so weakly or less than the wild type.

B1: RSVPMP7B2 (VHH)
VHH: EVQLVESGGGLVQAGDSLRLSCAASGRTFSSYAMGWFRQAPGKEREFVAAISWSDGSTYYADSVKGRFTISRDNAKNTVYLQMNSLKPEDTAVYYCAADLTSTNPGSYIYIWAYDYWGQGTQVTVSS
B2: RSVPMP15H8 (VHH)
VHH: EVQLVESGGGLVQAGGSLRLSCAASGRSFSNYVLGWFRQAPGKEREFVAAISFRGDSAIGAPSVEGRFTISRDNAKNTGYLQMNSLVPDDTAVYYCGAGTPLNPGAYIYDWSYDYWGRGTQVTVSS
B3: RSVNC23 (VHH)
VHH: EVQLVESGGGLVQPGGSLRLSCAASGRTFSSIAMGWFRQAPGKEREFVAAISWSRGRTFYADSVKGRFIISRDDAANTAYLQMNSLKPEDTAVYYCAVDTASWNSGSFIYDWAYDHWGQGTQVTVSS
B4: RSVPMP15B3 (VHH)
VHH: EVQLVESGGGLVQPGGSLRLSCAASGLTLDYYALGWFRQAPGKEREGVSCISSSDHSTTYTDSVKGRFTISWDNAKNTLYLQMNSLKPGDTAVYYCAADPALGCYSGSYYPRYDYWGQGTQVTVSS
B5: LG191D3 (VHH)
VHH: EVQLVESGGGLVQAGGSLRLSCEASGRTYSRYGMGWFRQAPGKEREFVAAVSRLSGPRTVYADSVKGRFTISRDNAENTVYLQMNSLKPEDTAVYTCAAELTNRNSGAYYYAWAYDYWGQGTQVTVSS
B6: LG191E4 (VHH)
VHH: EVQLVESGGGLVQAGGSLRLSCAASGPTFSADTMGWFRQAPGKEREFVATIPWSGGIAYYSDSVKGRFTMSRDNAKNTVDLQMNSLKPEDTALYYCAGSSRIYIYSDSLSERSYDYWGQGTQVTVSS

What was measured:
[1] = substrate: F protein of hRSV strain Long (human respiratory syncytial virus, strain Long) (UniProt P12568); assay: ELISA, 5 µg/ml hRSV (Hytest) coated
[2] = target: FTM-NN (membrane anchorless form of the Long fusion protein, 70 kDa) (human respiratory syncytial virus, strain Long) (UniProt P12568); assay: SPR on FTM-NN; numbers stand in Table C-5
[3] = target: FTM-NN (membrane anchorless form of the Long fusion protein, 70 kDa) (human respiratory syncytial virus, strain Long) (UniProt P12568); assay: ELISA, 1 µg/ml FTM-NN coated

Binder | binding [1] | binding [2] | binding [3]
B1 | binds | binds | binds
B2 | binds | binds | binds
B3 | binds | binds | binds
B4 | binds | binds | binds
B5 |  | binds | 
B6 |  | binds | 
